PubChem BioAssay AID686943 – Drosophila RNAi Screening Center – 2013

Assay: 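Search across the genome for regulators of signalling from receptor tyrosine kinase to ERK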 (primary screen)
System: Drosophila S2R+ haemocyte-like cells expressing YFP-tagged ERK (Rolled)
Knock-down reagent: long dsRNA against Drosophila genes
Challenge: insulin stimulation versus unstimulated cells; dose and duration not given
Measurement: 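Per-plate z-scores of phospho-ERK immunostaining normalised to YFP-tagged ERK, measured with and without insulin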
Scale: replicate 1, z-score of dpERK with insulin and replicate 2, z-score of dpERK with insulin: higher = more active ERK per ERK-YFP after insulin; replicate 1, z-score of dpERK under basal conditions: higher = more basal active ERK per ERK-YFP; replicate 1, z-score of ERK-YFP with insulin: higher = more YFP-tagged ERK signal
The screen tested about 23,000 reagents; below is an unselected part of those that have a named target and a result. 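Extra replicates exist only for a retested subset of genes; insulin dose and duration not given; both raised and lowered dpERK matter.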 The numbers tell different reagents against one gene apart. The record does not give: the amount of reagent, the time to read-out.

| gene knocked down | reagent no. | replicate 1, z-score of dpERK with insulin | replicate 2, z-score of dpERK with insulin | replicate 1, z-score of dpERK under basal conditions | replicate 1, z-score of ERK-YFP with insulin |
| --- | --- | --- | --- | --- | --- |
| CG13216 | 1 | -0.34 | 0.59 | 0.46 | 0.38 |
| CG7791 | 1 | 0.04 | 0.17 | -0.63 | 0.12 |
| Lsp2 (Larval serum protein 2) | 1 | -0.49 | -0.13 | -0.73 | 0.73 |
| Lsp2 (Larval serum protein 2) | 2 | -0.21 | -0.38 | 0.23 | 0.57 |
| CG10311 | 1 | -0.35 | 0 | 0.01 | 0.19 |
| CG33189 | 1 | 1.53 | -0.59 | -0.83 | -1.74 |
| Loxl1 (Lysyl oxidase-like 1) | 1 | -0.4 | -0.12 | -1.54 | 0.22 |
| snsl (snustorr snarlik) | 1 | 0.4 | 0.4 | -0.71 | 0.76 |
| Cpr65Av (Cuticular protein 65Av) | 1 | 0.73 | 0.43 | -0.04 | 0.11 |
| rt (rotated abdomen) | 1 | 0.24 | 0.17 | -0.61 | -0.39 |
| wds (will die slowly) | 1 | -0.19 | 0.21 | -1.2 | 2.91 |
| Irp-1A (Iron regulatory protein 1A) | 1 | 0.3 | 0.23 | -0.67 | 0.31 |
| CG13436 | 1 | 0.25 | 0.24 | 0.01 | 0.44 |
| Sap30 (SIN3-associated polypeptide 30) | 1 | -0.65 | -0.28 | -1.73 | 0.09 |
| wit (wishful thinking) | 1 | -0.12 | -0.13 | -0.31 | -0.03 |
| CG17777 | 1 | 0.04 | 0.38 | 1.71 | -0.26 |
| Bap111 (Brahma associated protein 111kD) | 1 | 0.06 | -0.19 | -0.22 | 1.4 |
| Sas10 (Something about silencing 10) | 1 | -0.17 | 0 | 0.39 | 0.82 |
| CG14736 | 1 | 0.28 | 0.77 | 0.78 | 0.15 |
| Start1 | 1 | 0.56 | 0.85 | 0.65 | -0.05 |
| Prosalpha4 (Proteasome alpha4 subunit) | 1 | -1.47 | -1.26 | -1.51 | -0.47 |
| wake (wide awake) | 1 | -0.06 | -0.41 | -0.5 | 0.08 |
| wake (wide awake) | 2 | 0.06 | -0.31 | -0.67 | -0.12 |
| drl (derailed) | 1 | 0.1 | -0.13 | 0.51 | 0.14 |
| CG11426 | 1 | 0.29 | 0.65 | 1.05 | 0.99 |
| Smox (Smad on X) | 1 | 2.28 | 1.78 | -0.36 | -0.7 |
| Dnai2 (dynein, axonemal, intermediate chain 2) | 1 | 0.64 | 0.01 | 0.65 | 0.15 |
| IscU (Iron-sulfur cluster assembly enzyme) | 1 | -1.05 | -0.1 | -0.85 | -0.39 |
| Mtap (Methylthioadenosine phosphorylase) | 1 | -0.91 | -0.1 | 1.15 | 0.6 |
| lncRNA:CR32835 (long non-coding RNA:CR32835) | 1 | 1.42 | -0.07 | -1.27 | -0.78 |
| jtb (jetboil) | 1 | 0.9 | 0.96 | 1.59 | -0.62 |
| Ir31a (Ionotropic receptor 31a) | 1 | 0.44 | -0.4 | 1.04 | 2.03 |
| CG12912 | 1 | -6.08 | -3.47 | -3.3 | -6.98 |
| sqd (squid) | 1 | -0.23 | 0.19 | -1.91 | 0.74 |
| sqd (squid) | 2 | -0.32 | -0.46 | -0.95 | 1.12 |
| sqd (squid) | 3 | -1.63 | 0.7 | 0.53 | -1.54 |
| CG30471 | 1 | 0.29 | 1.02 | -0.07 | 0.87 |
| Jheh1 (Juvenile hormone epoxide hydrolase 1) | 1 | -2.28 | -1.64 | 0.39 | 0.08 |
| CG30429 | 1 | -0.05 | 0.49 | -0.52 | 0.22 |
| Polr2F (RNA polymerase II, I and III subunit F) | 1 | 0.3 | 1.01 | -0.84 | -5.79 |
| CG13376 | 1 | 1.67 | -0.38 | 0.81 | -0.27 |
| Act88F (Actin 88F) | 1 | 4.15 | -3.62 | -1.08 | 1.84 |
| CG43218 | 1 | -0.66 | 0.4 | 0.67 | -0.09 |
| CG7227 | 1 | 0.7 | 0.51 | -0.14 | 0.36 |
| CG4615 | 1 | -0.11 | 0.89 | -0.27 | 0.2 |
| CG4615 | 2 | -0.44 | -1.39 | -1.18 | -2.9 |
| RtGEF (Rho-type guanine nucleotide exchange factor) | 1 | 0.02 | -0.38 | -1.76 | 0.5 |
| RtGEF (Rho-type guanine nucleotide exchange factor) | 2 | -0.81 | 0.08 | -0.2 | 0.36 |
| Spt6 | 1 | 3.32 | 2.78 | -0.65 | -2.8 |
| CG33286 | 1 | 0.74 | -0.57 | 0.32 | -0.09 |
| RpL34a (Ribosomal protein L34a) | 1 | -0.15 | 0.2 | 0.29 | -0.66 |
| CG12795 | 1 | 0.87 | -0.45 | -0.39 | 0.5 |
| PlexB (Plexin B) | 1 | -0.22 | -0.96 | 0.84 | 0.42 |
| mam (mastermind) | 1 | -5.51 | -2.01 | -2.63 | -5.5 |
| mam (mastermind) | 2 | -2.91 | -4.29 | -3.78 | -3.08 |
| Cds (CDP-diacylglycerol synthase) | 1 | 0.18 | 0.16 | 1.13 | 0.18 |
| CG14841 | 1 | -0.26 | -0.11 | -0.33 | -0.03 |

4 consecutive reagents already listed:
| gene knocked down | reagent no. | replicate 1, z-score of dpERK with insulin | replicate 2, z-score of dpERK with insulin | replicate 1, z-score of dpERK under basal conditions | replicate 1, z-score of ERK-YFP with insulin |
| --- | --- | --- | --- | --- | --- |
| Start1 | 1 | 0.56 | 0.85 | 0.65 | -0.05 |
| Prosalpha4 (Proteasome alpha4 subunit) | 1 | -1.47 | -1.26 | -1.51 | -0.47 |
| wake (wide awake) | 1 | -0.06 | -0.41 | -0.5 | 0.08 |
| wake (wide awake) | 2 | 0.06 | -0.31 | -0.67 | -0.12 |
